Results taken from patent US20090169540A1, “Use Of An Antagonist Of Epac For Treating Human Cardiac Hypertrophy” (priority 2005, published 2009).
At least one structure is not confirmed: it was looked up by name or label, or the drawing left a doubt.

Test system: Rac
Experiment: Rac activation assay (Rac-GTP pull-down), HL-1 atrial cells
Type: cell-based
Conditions: HL-1 adult mouse atrial cells, 100 μM, 10 min exposure

In the case of `C=C[C@@]1(C)CC(=O)[C@]2(O)[C@@]3(C)[C@@H](O)CCC(C)(C)[C@@H]3[C@H](O)[C@H](OC(C)=O)[C@@]2(C)O1` [forskolin], the “Amount of Rac-GTP / Rac activation” value is reported as “mimicked the effect of 8-CPT on Rac activation”.
